Source: paper PMC8836267
These are yes or no findings as the source states them, for the method shown.

Amino acid sequences for entries named in this document (tags omitted). Residues count along the entry.
UniProt P40126, residues 24-474: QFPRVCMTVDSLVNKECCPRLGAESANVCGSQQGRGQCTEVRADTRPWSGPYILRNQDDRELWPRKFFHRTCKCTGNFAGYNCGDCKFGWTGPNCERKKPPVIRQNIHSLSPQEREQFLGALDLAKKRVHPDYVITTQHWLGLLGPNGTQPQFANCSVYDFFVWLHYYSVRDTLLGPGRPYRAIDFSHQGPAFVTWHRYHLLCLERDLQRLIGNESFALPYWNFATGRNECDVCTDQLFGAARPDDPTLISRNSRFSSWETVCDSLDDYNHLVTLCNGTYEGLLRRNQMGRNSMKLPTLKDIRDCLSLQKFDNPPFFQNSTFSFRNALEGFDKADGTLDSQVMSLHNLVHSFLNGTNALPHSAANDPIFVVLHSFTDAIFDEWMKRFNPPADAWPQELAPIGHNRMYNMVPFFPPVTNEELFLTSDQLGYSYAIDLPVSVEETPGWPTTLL

Legend:
[1] = molecular target: Intra-melanosomal domain of human recombinant tyrosinase-related protein 2 (Tyrp2_(43tr), residues 1-474) (human) (UniProt P40126); test: dynamic light scattering; Tyrp2 at 1 mg/mL in 50 mM Tris-HCl (pH 7.4), 1 mM EDTA, 150 mM NaCl, 50 µM TCEP, 25 °C; both purified
[2] = molecular target: Intra-melanosomal domain of human recombinant tyrosinase-related protein 2 (Tyrp2_(43tr), residues 1-474) (human) (UniProt P40126); test: SEC; Superdex 200 Increase 10/300 GL, calibrated with Bio-Rad gel-filtration standards; Tyrp2 after IMAC and gel filtration; both purified

binding [1]: no binding (tested: 1 mg/mL)
binding [2]: no binding
Substance: Intra-melanosomal domain of human recombinant tyrosinase-related protein 2 (Tyrp2_(43tr), residues 1-474) (from UniProt P40126 24-474) (domain or fragment)
